Data as given in PubChem BioAssay AID1259308 (NCATS, 2017).
Here is one part, drawn at random, of about 59,000 deposited reagents. About 1,510 of all reagents (2.6%) were called active. 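Calls use total luciferase alone and ignore viability, so some active siRNAs may act by altering cell number.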 A number with no mark means an inactive call. Reagents against one gene are numbered here. Further read-outs or replicates are left out here.

- Assay: 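Genes whose loss raises luciferase production in HEK293 cells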 (primary screen)
- Cell system: human HEK293 embryonic kidney cells stably expressing firefly luciferase (HEK-CMV-Luc2-Hygro)
- Reagents: single siRNA against human genes, 0.8 pmol siRNA per well
- Timing: 72 h
- Measured: 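Reporter luminescence and viable-cell signal on separate replicate plates, given as percent of non-targeting control and median/MAD z-scores, plus per-cell luciferase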
- Reading the numbers: total luciferase, z-score: higher = more reporter protein produced
- Hit rule: 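Active when the median/MAD z-score for overall luciferase is greater than 3; a gene was taken forward for validation with new siRNAs if at least two of its three siRNAs passed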
- Meaning of the calls: active = raised luciferase; inactive = no rise

| target gene | siRNA no. | total luciferase, z-score |
| --- | --- | --- |
| PNPLA10P (GeneID 643773) | 1 | 4.26 (active) |
| PNPLA10P (GeneID 643773) | 2 | 0.256 |
| PNPLA10P (GeneID 643773) | 3 | -0.333 |
| RPL13 (GeneID 6137) | 1 | -3.14 |
| RPL13 (GeneID 6137) | 2 | -2.13 |
| RPL13 (GeneID 6137) | 3 | -0.907 |
| TMEM253 (GeneID 643382) | 1 | 0.0985 |
| TMEM253 (GeneID 643382) | 2 | 0.407 |
| TMEM253 (GeneID 643382) | 3 | 0.433 |
| ZSCAN10 (GeneID 84891) | 1 | 1.02 |
| ZSCAN10 (GeneID 84891) | 2 | -0.403 |
| ZSCAN10 (GeneID 84891) | 3 | -1.18 |
| MISO1 (GeneID 285315) | 1 | 1.26 |
| MISO1 (GeneID 285315) | 2 | -1.54 |
| MISO1 (GeneID 285315) | 3 | -0.729 |
| WDR5 (GeneID 11091) | 1 | -0.46 |
| WDR5 (GeneID 11091) | 2 | 1.2 |
| WDR5 (GeneID 11091) | 3 | -0.417 |
| PCDHGB5 (GeneID 56101) | 1 | -0.716 |
| PCDHGB5 (GeneID 56101) | 2 | -0.218 |
| PCDHGB5 (GeneID 56101) | 3 | 0.0723 |
| R3HDM1 (GeneID 23518) | 1 | -0.0182 |
| R3HDM1 (GeneID 23518) | 2 | -0.62 |
| R3HDM1 (GeneID 23518) | 3 | 0.171 |
| DEFB128 (GeneID 245939) | 1 | 1.72 |
| DEFB128 (GeneID 245939) | 2 | -2.59 |
| DEFB128 (GeneID 245939) | 3 | -0.595 |
| ACTL6A (GeneID 86) | 1 | 2.45 |
| ACTL6A (GeneID 86) | 2 | 3.55 (active) |
| ACTL6A (GeneID 86) | 3 | 1.78 |
| NKTR (GeneID 4820) | 1 | -0.255 |
| NKTR (GeneID 4820) | 2 | 0.223 |
| NKTR (GeneID 4820) | 3 | -0.878 |
| IL12RB1 (GeneID 3594) | 1 | -0.0774 |
| IL12RB1 (GeneID 3594) | 2 | -0.0326 |
| IL12RB1 (GeneID 3594) | 3 | -0.457 |
| GNPAT (GeneID 8443) | 1 | -0.898 |
| GNPAT (GeneID 8443) | 2 | -0.93 |
| GNPAT (GeneID 8443) | 3 | -0.124 |
| CCDC62 (GeneID 84660) | 1 | -0.671 |
| CCDC62 (GeneID 84660) | 2 | 0.0888 |
| CCDC62 (GeneID 84660) | 3 | 0.0199 |
| CLTC (GeneID 1213) | 1 | -1.04 |
| CLTC (GeneID 1213) | 2 | -0.0258 |
| CLTC (GeneID 1213) | 3 | -0.804 |
| LINC00574 (GeneID 80069) | 1 | 0.586 |
| LINC00574 (GeneID 80069) | 2 | -0.429 |
| LINC00574 (GeneID 80069) | 3 | 1.47 |
| KCNJ9 (GeneID 3765) | 1 | -0.286 |
| KCNJ9 (GeneID 3765) | 2 | -0.22 |
| KCNJ9 (GeneID 3765) | 3 | 0.977 |
| OR10A4 (GeneID 283297) | 1 | -0.0402 |
| OR10A4 (GeneID 283297) | 2 | -0.684 |
| OR10A4 (GeneID 283297) | 3 | 1.11 |
| MYL6B (GeneID 140465) | 1 | 1.44 |
| MYL6B (GeneID 140465) | 2 | -0.824 |
| MYL6B (GeneID 140465) | 3 | 1.24 |
| TEX29 (GeneID 121793) | 1 | 1.71 |
| TEX29 (GeneID 121793) | 2 | 0.315 |
| TEX29 (GeneID 121793) | 3 | 0.883 |
| CLEC18A (GeneID 348174) | 1 | -2.3 |
| CLEC18A (GeneID 348174) | 2 | 1.12 |
| CLEC18A (GeneID 348174) | 3 | 1.07 |
| SKA3 (GeneID 221150) | 1 | -1.17 |
| SKA3 (GeneID 221150) | 2 | -0.902 |
| SKA3 (GeneID 221150) | 3 | 1.69 |
| BPIFB2 (GeneID 80341) | 1 | 0.462 |
| BPIFB2 (GeneID 80341) | 2 | 1.49 |
| BPIFB2 (GeneID 80341) | 3 | -1.19 |
| PTX4 (GeneID 390667) | 1 | 0.484 |
| PTX4 (GeneID 390667) | 2 | -1.94 |
| PTX4 (GeneID 390667) | 3 | -0.87 |
| THUMPD1 (GeneID 55623) | 1 | -0.863 |
| THUMPD1 (GeneID 55623) | 2 | 1.67 |
| THUMPD1 (GeneID 55623) | 3 | -0.321 |

Looked up above.
Under “total luciferase, z-score”, PCDHGB5 (GeneID 56101) #3 shows 0.0723
WDR5 (GeneID 11091) #1, total luciferase, z-score → -0.46
Result for ACTL6A (GeneID 86) #3 in “total luciferase, z-score”: 1.78
Under “total luciferase, z-score”, TMEM253 (GeneID 643382) #3 shows 0.433
Entry for SKA3 (GeneID 221150) #1 in “total luciferase, z-score”: -1.17
For “total luciferase, z-score”, WDR5 (GeneID 11091) #3 is entered as -0.417
